Data reported in article PMC9319256, “Human Enzyme PADI4 Binds to the Nuclear Carrier Importin α3” (Cells, 2022).
No constants are given. Whether binding was seen depends on the method and setting.

How the values were obtained:
[1] = target: NLS2-PADI4 peptide (human); assay: SEC; Superdex 75 10/30 HR; 20 mM Tris pH 7.6, 250 mM NaCl; 50-400 µM NLS1-PADI4, 200-400 µM NLS2-PADI4; both purified
[2] = target: NLS2-PADI4 peptide (human); assay: translational diffusion NMR (DOSY); 100 µM peptide; 100 mM sodium phosphate, pH 7.0; 10 °C; dioxane as reference; both purified

YKLFQEQQNEGHGEALLFEGIKKKKQQKI (acetylated N-terminus; amidated C-terminus) [NLS2-PADI4 peptide]
binding [1]: no binding (tested: 200–400 µM) | binding [2]: no binding (tested: 100 µM)
